No constants are given. Whether binding was seen depends on the method and setting. In cells and extracts the contact can be indirect. These calls come from enrichment with a bait or labelling near it, and not all partners need be listed.
Biological target: T1, THY-1 cell surface antigen (CD90), endogenous in MRC-5 cells (human (endogenous in MRC-5)) (UniProt P04216)
T1 sequence (chain, C-terminal a.a. 132-162 replaced with a GPI anchor): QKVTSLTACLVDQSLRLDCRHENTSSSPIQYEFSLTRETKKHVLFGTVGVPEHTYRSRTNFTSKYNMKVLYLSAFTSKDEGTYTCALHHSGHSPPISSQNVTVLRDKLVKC
Assay: affinity purification with mass spectrometry; anti-THY-1 antibody and protein A-Sepharose, 4°C overnight, on lysates of MRC-5 cells infected with HCMV Towne (25 mM Tris, 15 mM NaCl, 0.1% NP40 with or without 5 mM EDTA); bands absent with isotype control antibody and in uninfected cells were excised from SDS-PAGE and identified by mass spectrometry

The chains behind the UniProt entries cited, without tags or fusion partners. Residues count along the entry.
UniProt P13201, residues 23-907: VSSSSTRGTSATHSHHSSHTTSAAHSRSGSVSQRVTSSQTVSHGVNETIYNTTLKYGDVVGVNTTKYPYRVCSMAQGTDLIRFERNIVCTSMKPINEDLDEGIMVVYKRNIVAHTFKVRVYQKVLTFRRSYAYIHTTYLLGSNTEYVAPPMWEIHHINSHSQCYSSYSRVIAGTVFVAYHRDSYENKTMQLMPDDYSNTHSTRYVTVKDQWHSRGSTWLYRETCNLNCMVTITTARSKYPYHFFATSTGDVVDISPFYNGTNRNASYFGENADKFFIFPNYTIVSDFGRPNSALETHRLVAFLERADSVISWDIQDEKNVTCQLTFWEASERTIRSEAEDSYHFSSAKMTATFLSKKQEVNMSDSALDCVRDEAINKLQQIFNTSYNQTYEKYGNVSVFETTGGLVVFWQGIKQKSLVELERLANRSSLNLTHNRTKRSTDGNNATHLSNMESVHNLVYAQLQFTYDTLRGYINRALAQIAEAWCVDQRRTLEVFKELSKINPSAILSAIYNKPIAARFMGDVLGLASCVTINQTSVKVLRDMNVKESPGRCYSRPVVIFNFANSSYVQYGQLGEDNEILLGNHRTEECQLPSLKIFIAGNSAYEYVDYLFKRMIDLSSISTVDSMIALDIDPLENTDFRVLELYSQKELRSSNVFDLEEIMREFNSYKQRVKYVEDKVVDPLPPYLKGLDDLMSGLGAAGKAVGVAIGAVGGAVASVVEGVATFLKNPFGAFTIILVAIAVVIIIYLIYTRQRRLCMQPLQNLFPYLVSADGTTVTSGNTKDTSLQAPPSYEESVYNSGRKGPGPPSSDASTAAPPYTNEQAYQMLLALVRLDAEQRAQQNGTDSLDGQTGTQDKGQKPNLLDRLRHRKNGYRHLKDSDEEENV
UniProt P17176, residues 30-742: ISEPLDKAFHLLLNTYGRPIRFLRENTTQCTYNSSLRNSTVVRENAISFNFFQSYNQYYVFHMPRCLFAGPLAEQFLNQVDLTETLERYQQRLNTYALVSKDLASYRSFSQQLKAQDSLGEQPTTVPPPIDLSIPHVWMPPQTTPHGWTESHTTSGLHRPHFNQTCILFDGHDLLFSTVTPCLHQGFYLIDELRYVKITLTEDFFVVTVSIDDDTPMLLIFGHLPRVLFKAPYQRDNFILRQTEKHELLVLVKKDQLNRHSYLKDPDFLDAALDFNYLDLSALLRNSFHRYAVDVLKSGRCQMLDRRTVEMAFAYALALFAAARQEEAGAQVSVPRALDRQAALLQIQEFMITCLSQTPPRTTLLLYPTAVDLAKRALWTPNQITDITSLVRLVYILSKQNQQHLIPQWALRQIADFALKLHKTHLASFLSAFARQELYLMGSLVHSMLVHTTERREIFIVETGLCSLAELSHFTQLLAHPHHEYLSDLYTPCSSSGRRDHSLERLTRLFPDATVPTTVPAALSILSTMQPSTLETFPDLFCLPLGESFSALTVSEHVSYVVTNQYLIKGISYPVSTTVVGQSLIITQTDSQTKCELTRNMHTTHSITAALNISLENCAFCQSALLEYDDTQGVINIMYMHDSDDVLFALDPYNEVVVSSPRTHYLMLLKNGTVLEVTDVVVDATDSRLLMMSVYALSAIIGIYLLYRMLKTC

Substance | binding
HCMV glycoprotein B (gB), from MRC-5 cells infected with HCMV Towne (from UniProt P13201 23-907) | binds
HCMV glycoprotein H (gH), from MRC-5 cells infected with HCMV Towne (from UniProt P17176 30-742) | binds
